According to publication PMC5512693, “Bacterial RadA is a DnaB-type helicase interacting with RecA to promote bidirectional D-loop extension” (Nature Communications, 2017):
Results are given in words; binding and its absence hold for the method and conditions named. Some results given as binding are weak or reduced against the parent protein; the word gives no strength.

Target: RecA, bacterial two-hybrid fusion (S. pneumoniae) (UniProt P0A452)
Assay: two-hybrid; adenylate cyclase-based bacterial two-hybrid (BacTH), T18 and T25 fusions in E. coli BTH101, drops on LB plates with IPTG and X-Gal, 24 h at 25 °C

Substance: RecA, bacterial two-hybrid fusion (from UniProt P0A452 1-388) (enzyme)
- binding: binds
